These are yes or no findings as the source states them, for the method shown. Binding seen in cells or lysates may run through a third protein. For part of these data: Binding can be weak; no strength is given.

Amino acid sequences for entries named in this document (tags omitted). A change or cut given only in a name is not applied to a line headed by its entry.
UniProt P11766: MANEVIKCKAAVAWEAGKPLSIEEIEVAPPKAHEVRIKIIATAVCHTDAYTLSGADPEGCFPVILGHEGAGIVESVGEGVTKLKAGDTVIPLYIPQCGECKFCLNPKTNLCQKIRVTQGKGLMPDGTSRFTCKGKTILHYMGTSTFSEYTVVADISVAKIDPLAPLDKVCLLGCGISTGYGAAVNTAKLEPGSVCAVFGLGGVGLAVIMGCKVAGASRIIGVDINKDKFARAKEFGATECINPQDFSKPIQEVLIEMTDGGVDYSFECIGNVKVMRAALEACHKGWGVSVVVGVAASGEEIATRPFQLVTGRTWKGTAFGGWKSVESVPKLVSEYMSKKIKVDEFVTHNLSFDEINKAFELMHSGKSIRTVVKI
UniProt O43915: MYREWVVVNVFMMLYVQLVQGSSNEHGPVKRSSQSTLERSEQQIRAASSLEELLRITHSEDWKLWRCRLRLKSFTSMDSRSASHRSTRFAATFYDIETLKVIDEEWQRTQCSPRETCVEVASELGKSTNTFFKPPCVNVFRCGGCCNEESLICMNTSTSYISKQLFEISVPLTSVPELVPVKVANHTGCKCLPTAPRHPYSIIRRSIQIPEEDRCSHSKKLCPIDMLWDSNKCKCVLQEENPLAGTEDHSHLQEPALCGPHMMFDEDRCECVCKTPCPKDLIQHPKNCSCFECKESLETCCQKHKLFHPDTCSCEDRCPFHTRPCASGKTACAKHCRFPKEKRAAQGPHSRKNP

One assay deals with T1, Thioredoxin (Trx-1) (UniProt P10599).
T1 sequence: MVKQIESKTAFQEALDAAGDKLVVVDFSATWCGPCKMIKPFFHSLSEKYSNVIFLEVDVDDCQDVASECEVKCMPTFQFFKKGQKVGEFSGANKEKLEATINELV
The experiment in a line: co-IP; NCI-H1975 cells at 24 h post-transfection with HA-VEGFD(WT) or HA-VEGFD(C277S); RIPA lysates, supernatants incubated with antibody and protein A/G PLUS-Agarose overnight at 4 °C; precipitating antibody not told.

Assay [1] addresses S-nitrosoglutathione reductase (GSNOR) (UniProt P11766). The assay is described as above.

With “HA-VEGFD(WT), vascular endothelial growth factor D (from UniProt O43915) (ligand)”, the figures for the binding entry (with Thioredoxin (Trx-1); in assay [1]) were “no binding” and “binds”, respectively.

In the case of “HA-VEGFD(C277S) (from UniProt O43915) (ligand)”, the binding result in assay [1] was “binds”.

(Values after article PMC9358865.)
